Assay results reported in the supplement of paper PMC8007513.
The other results are listed elsewhere or left out. Many values rest on one well or one pass, so single values are uncertain.

These compounds were tested on Saccharomyces cerevisiae BY4743 (assay: growth (OD600) relative to untreated control; higher = less growth inhibition). Conditions: compound concentration: 133 uM; 20 h.
Description: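 NMCCC compounds (133 uM, no IPBC) tested alone against Saccharomyces cerevisiae BY4743 in YPD, 96-well plates, starting OD600 ~0.1. Growth was read as OD600 at 20 h and expressed as % of the untreated control. Single pass.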
CC1C\N=C(\NC2=NC=CC=C2C)S1 (centres undefined) gave a growth of 98.9%.
NCCCC(=O)OC1\N=C(\C2=CC=CC=C2Cl)C3=CC(=CC=C3NC1=O)Br (centres undefined) was tested, and the growth was 105%.
For Cc1noc(C(=O)N2CCC3(CC2)OCCO3)c1Cl, the growth was 107%.
Compound COc1ccc(NC(=O)c2c(C)nn(Cc3ccccc3Cl)c2C)cc1 has a growth of 95.7%.
For COC(=O)C(O)(c1cn(C)c2ccccc12)C(F)(F)F (centres undefined), the growth was 94.5%.
O=C(OCC(=O)N1CCNC1=O)c1cnn(Cc2ccccc2)c1 gave a growth of 85.1%.
Compound COc1cc2c(cc1OC)C1CC(=O)C(CC(C)C)CN1CC2 (centres undefined) has a growth of 99.9%.
Compound CC(=O)NN1C(=O)c2ccccc2NC1c1cccnc1 (centres undefined) has a growth of 105%.
Compound CCS\C1=N\C2=CC=CC=C2C(=O)N1C3=CC=CN=C3 has a growth of 104%.
